Drawing on paper PMC6685081, this text covers binding for two substances.

The chains behind the UniProt entries cited, without tags or fusion partners. Residues count along the entry.
UniProt Q9Y3D2, residues 21-182: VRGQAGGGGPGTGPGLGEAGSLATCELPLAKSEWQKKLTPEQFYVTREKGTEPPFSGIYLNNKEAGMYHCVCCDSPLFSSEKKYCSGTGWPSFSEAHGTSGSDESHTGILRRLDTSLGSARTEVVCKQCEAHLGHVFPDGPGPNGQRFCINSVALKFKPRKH
UniProt O60260: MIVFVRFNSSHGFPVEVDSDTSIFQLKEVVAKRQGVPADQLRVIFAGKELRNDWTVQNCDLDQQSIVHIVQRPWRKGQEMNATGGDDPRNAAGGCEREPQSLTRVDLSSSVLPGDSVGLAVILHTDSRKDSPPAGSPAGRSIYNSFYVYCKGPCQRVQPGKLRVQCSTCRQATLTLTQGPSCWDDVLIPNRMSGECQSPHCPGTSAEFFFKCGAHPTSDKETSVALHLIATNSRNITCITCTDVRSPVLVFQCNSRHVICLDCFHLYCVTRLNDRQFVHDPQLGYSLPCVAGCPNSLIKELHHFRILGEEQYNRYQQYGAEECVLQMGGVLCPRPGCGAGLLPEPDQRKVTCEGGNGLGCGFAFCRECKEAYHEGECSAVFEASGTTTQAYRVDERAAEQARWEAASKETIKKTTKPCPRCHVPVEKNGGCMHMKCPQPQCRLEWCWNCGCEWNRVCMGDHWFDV

Results are given in words; binding and its absence hold for the method and conditions named. In cells and extracts the contact can be indirect. Some entries that bind do so weakly or less than the wild type.

Assay [1] concerns the target methionine sulfoxide reductase B2 (MsrB2) (human (endogenous in platelets)) (UniProt Q9Y3D2). As to the kind of experiment: co-IP; healthy control and DM human platelet lysates with the specific antibody (MsrB2 or Parkin) overnight at 4°C, protein A/G sepharose beads 1 h at 4°C, three washes with lysis buffer, Western blot.
The target in assay [2] is Parkin (human (endogenous in platelets)) (UniProt O60260). Described as above.

Consider Parkin (from UniProt O60260 1-465), for which the binding entry in assay [1] is “binds”.

In the case of “methionine sulfoxide reductase B2 (MsrB2) (from UniProt Q9Y3D2 21-182)”, in assay [2], the binding entry was “binds”.
